The text below walks through data of patent US20140194361A1, “Vault Agents for Treating Chronic Kidney Disease” (priority 2010, published 2014).

This data set relates to type 2 diabetic db/db mice. In words: prevention of progression of early DN in type 2 diabetic db/db mice. Format: in vivo. The conditions noted are these: 2400 μg/kg, diabetic or non-diabetic animals. An excerpt: There was no change in blood pressure or plasma glucose in either the diabetic or non-diabetic animals.
There was no change in creatinine clearance in the cyclic-GRGESP-control peptide treated diabetic animals
In addition, glomerular volume measured by fractional volume of expansion by electron microscopy was normalized, p<0.05 after 12 weeks of treatment.
We investigated the ability of cyclic GRGDSP vs. GRGESP in a pilot study to prevent accumulation of glomerular lesions in early DN in 20 week old diabetic type 2 db/db vs non-diabetic db/m and diabetic type 1 Ins2Akita+ vs. non-diabetic Ins2+/+ mice with GRGESP and […] and observed up to 52% reduction in albuminuria in the type 2 diabetic mice (FIGS. 1-2) and ˜70% reduction in albuminuria in the type 1 diabetic mice (FIG. 6).

For GRGDSP [cyclic-GRGDSP], the blood pressure result is recorded as “no change” and the plasma glucose result was “no change”.
